In patent US20140335180A1, “PRODUCTS FOR ORAL ADMINISTRATION COMPRISING EXTRACTS OF PUNICA GRANATUM (POMEGRANATE), INTENDED FOR A PET, AND APPLICATIONS OF SAME” (VIRBAC SA, priority 2011, published 2014):
For at least one compound, name, drawing or mass did not settle the structure.

System: CnAOEC cells
Experiment: 3H-thymidine proliferation test in canine aortic endothelial cells
Type: cell-based
Conditions: reference substances, phase 1, 48 hours exposure
Procedure: The cells are cultured in a culture medium containing CECGM (Canine Endothelial Cell Growth Medium) growth factors and previously coated with AFS (Attachment Factor Solution) agent to assist with the adherence thereof.
The confluent CnAOEC cell cultures were re-inoculated in 96-well culture plates (10,000 cells per […]). Six hours after the inoculation thereof, the cells were exposed to ^3H-thymidine (final concentration: 1 μCi/ml) and to the respective test agents for 48 hours, and were subjected to two washing steps with PBS. After a treatment with trypsin and a freeze-thaw cycle, the DNA incorporating ^3H-thymidine was captured on a glass fiber filter using a “Betaplate™ 96-bien-Cell Harvester” (Wallac, Turku).
The quantities of ^3H-thymidine incorporated in the control cells (without adding test agent) were defined as 100% and the results were expressed as a function of these control cells.
The soy isoflavones were solubilized in DMSO. The experimental samples, and those of the respective controls (DMSO free from test substance) contained a final DMSO concentration of 1%.
The statistical evaluation is based on three or four separate experiments, each being performed with 2 to 4 independent wells.

| SMILES | effect on CnAOEC cell proliferation |
| --- | --- |
| CCc1ccc(CCOc2ccc(CC3SC(=O)NC3=O)cc2)nc1 (centres unmarked) [Pioglitazone, reference compound] | reduce CnAOEC cell proliferation considerably |
| CN(CCOc1ccc(CC2SC(=O)NC2=O)cc1)c1ccccn1 (centres unmarked) [Rosiglitazone, reference compound] | reduce CnAOEC cell proliferation considerably |
